Assay [1] deals with soluble recombinant integrin αIIbβ3 (UniProt P08514). As to the kind of experiment: ELISA; as a1 (sCD40L (118–261) immobilised, soluble αIIbβ3, 1 mM Mn2+), except that the disintegrin domain of ADAM15 fused to GST or parent GST was added; both purified.
Assay [2] concerns the target sCD40L (residues 118–261), wild type, lacking the KGD motif (UniProt P29965). Briefly: ELISA; sCD40L (WT or mutant) coated on wells; soluble αIIbβ3 (1 µg/mL) in HEPES-Tyrodes buffer with 1 mM MnCl2, 1 h at room temperature; bound αIIbβ3 detected with anti-β3 mAb AV-10; both purified.
Assay [3] addresses sCD40L (118–261) HIGM1 mutant K143T (UniProt P29965). The assay is described as above.
Assay [4] addresses T1, Fibrinogen γ-chain C-terminal peptide (residues 390–411) fused to GST.
T1 sequence: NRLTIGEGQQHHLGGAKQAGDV
Briefly: ELISA; γC390–411 coated on wells; soluble αIIbβ3 with 1 mM Mn2+ instead of 1 mM Ca2+ (positive control, set as 100%); both purified.

Sequences of proteins named here, by UniProt entry; tags and fusion partners are left off. A change or cut given only in a name is not applied to a line headed by its entry. A line that says so, or that is headed by a name, gives the form on record, which may keep a tag or linker. Residues count along the entry.
UniProt P08514: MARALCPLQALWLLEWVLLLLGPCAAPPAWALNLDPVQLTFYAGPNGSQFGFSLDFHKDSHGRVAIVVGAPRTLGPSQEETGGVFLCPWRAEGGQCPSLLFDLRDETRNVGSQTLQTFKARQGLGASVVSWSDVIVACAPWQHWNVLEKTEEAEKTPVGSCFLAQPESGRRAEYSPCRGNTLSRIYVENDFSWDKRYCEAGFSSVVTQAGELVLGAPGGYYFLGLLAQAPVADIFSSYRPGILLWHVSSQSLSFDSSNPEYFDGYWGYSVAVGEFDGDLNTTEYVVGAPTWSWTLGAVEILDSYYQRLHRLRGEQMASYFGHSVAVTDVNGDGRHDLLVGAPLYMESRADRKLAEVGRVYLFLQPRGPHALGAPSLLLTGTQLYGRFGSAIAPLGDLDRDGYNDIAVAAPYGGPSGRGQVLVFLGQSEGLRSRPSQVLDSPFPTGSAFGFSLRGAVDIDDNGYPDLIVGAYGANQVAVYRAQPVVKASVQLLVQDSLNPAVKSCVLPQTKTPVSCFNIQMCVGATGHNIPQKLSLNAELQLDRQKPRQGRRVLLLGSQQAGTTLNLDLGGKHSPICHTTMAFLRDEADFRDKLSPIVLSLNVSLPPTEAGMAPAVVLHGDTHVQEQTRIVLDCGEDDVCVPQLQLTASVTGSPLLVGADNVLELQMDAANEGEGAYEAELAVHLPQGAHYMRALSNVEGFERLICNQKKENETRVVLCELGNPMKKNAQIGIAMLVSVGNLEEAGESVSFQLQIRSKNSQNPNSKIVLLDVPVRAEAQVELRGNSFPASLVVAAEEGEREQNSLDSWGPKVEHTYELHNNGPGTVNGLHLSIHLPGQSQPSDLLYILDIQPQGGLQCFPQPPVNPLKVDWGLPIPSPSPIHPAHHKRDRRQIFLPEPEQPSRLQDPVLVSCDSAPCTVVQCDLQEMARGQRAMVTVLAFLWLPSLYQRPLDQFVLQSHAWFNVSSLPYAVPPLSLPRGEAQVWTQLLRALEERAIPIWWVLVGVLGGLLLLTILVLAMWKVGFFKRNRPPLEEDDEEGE
sCD40L (residues 118–261), wild type, lacking the KGD motif (P29965, residues 118-261): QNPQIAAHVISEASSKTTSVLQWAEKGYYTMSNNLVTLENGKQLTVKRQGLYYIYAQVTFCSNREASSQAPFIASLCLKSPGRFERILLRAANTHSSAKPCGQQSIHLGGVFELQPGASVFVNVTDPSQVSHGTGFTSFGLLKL
sCD40L (118–261) HIGM1 mutant K143T (P29965, form named): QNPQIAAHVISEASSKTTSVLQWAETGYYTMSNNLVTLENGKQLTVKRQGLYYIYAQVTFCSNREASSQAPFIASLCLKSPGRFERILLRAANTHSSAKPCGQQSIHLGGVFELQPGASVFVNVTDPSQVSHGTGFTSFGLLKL
UniProt Q13444, residues 421-508: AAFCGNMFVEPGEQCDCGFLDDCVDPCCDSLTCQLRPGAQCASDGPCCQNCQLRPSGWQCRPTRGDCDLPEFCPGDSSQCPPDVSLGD

The target is the same in assay [5]. As to the kind of experiment: ELISA; γC390–411 coated on wells (20 µg/mL); soluble αIIbβ3 (1 µg/mL) pre-incubated with sCD40L for 10 min, then 1 h at room temperature in HEPES-Tyrodes buffer with 1 mM CaCl2 in the presence of sCD40L; detected with anti-β3 mAb AV-10; both purified.
In assay [6] the target is sCD40L (residues 118–261), wild type, lacking the KGD motif (UniProt P29965). Briefly: ELISA; as a1 (sCD40L (118–261) immobilised, soluble αIIbβ3, 1 mM Mn2+), except that the disintegrin domain of ADAM15 fused to GST or parent GST was added; both purified.
Assay [7] deals with recombinant integrin αIIbβ3 on the surface of CHO cells (UniProt P08514). Briefly: flow cytometry on cells; αIIbβ3-CHO cells incubated with WT sCD40L (0–50 µg/mL) 30 min on ice, then with FITC-labeled γC390–411 30 min at room temperature; 1 mM Ca2+; only the binder purified.

No constants are given. Whether binding was seen depends on the method and setting. Some entries that bind do so weakly or less than the wild type. For some of these results: Tags and fused reporters may be left off the sequences shown.

For the molecule “disintegrin domain of ADAM15 (A disintegrin and metalloprotease-15) fused to GST (from UniProt Q13444 421-508) (domain or fragment)”, the binding entry in assay [1] was “binds”.

“soluble recombinant integrin αIIbβ3 (from UniProt P08514 32-485; P05106 27-497) (receptor)”: the binding result in assay [2], in assay [3], in assay [4], in assay [5] and in assay [6] was “binds” throughout.

With NRLTIGEGQQHHLGGAKQAGDV (FITC-labeled) [FITC-labeled γC390–411 (fibrinogen γ-chain residues 390–411 fused to GST)], the binding result in assay [7] was “binds”.
